According to PubChem BioAssay AID540256 (National Center for Advancing Translational Sciences (NCATS), 2011):
Hit rate of the full screen: of about 300,000 compounds, about 3,700 (1.2%) were called active. This list was built around the results that the source calls inconclusive (neither active nor inactive); the mix of calls is not that of the screen. Calls come from the whole dose curve; tested in HEK293 cells. Potencies of inconclusive entries are doubtful fits and often do not repeat.

Test: qHTS for Inhibitors of binding or entry into cells for Lassa Virus; note: nearly all actives have a fitted effect of over 50% in size
Conditions: Lassa virus pseudotype entry inhibition, cell reporter; activity change, negative = inhibition: at 37.9 µM (top of the series) unless noted
% is set by controls: 0 for no effect and ±100 for the full control effect; potency is the fitted concentration of half-maximal effect.

SMILES | Potency | activity change, negative = inhibition
Cc1ccc(NC(=S)Nc2ccc(S(=O)(=O)N3CCOCC3)cc2)cc1S(=O)(=O)N1CCOCC1 | active: 11.2 µM | 
Cc1cccc(/C(N)=N/OC(=O)Cc2cccs2)c1 |  | inactive: 11.3%
CCOc1ccc(N(CC(=O)NCCc2ccccc2)C(=O)CCC(=O)Nc2nccs2)cc1 | inconclusive: 22.4 µM [inhibitor, partial curve, poor fit] | 
COc1ccc(N2CC(NC(=O)c3ccc(S(=O)(=O)N4CCCCC4)cc3)CC2=O)cc1OC (configuration not stated) |  | inactive: 8.98% [at 46.1 µM]
Cn1cnnc1SCC(=O)N1CCN(C(=O)c2ccco2)CC1 |  | inactive: 5.69%
Cc1cccc(NC(=S)N=Nc2c(O)n(C)c3ccc(S(=O)(=O)N4CCOCC4)cc23)c1 | inconclusive: 10 µM [inhibitor, partial curve] | 
CCc1ccc(NC(=S)N(Cc2ccccc2)Cc2ccccn2)cc1 | inconclusive: 2.82 µM [inhibitor, full curve, poor fit] | 
COc1ccc(-n2nc(C(=O)Nc3nc4ccc(OC)cc4s3)c3ccccc3c2=O)c(OC)c1 |  | inactive: 5.33%
Cc1ccc(S(=O)(=O)N2CCCC(C(=O)N3CCN(c4ccccc4)CC3)C2)cc1 (configuration not stated) | inconclusive: 35.5 µM [inhibitor, single point] | 
CCOC(=O)C1(CCOc2ccccc2)CCN(CCCn2cccn2)CC1 | inconclusive: 35.5 µM [inhibitor, partial curve, poor fit] | 
CC1CCCCN1S(=O)(=O)c1ccc(N(C(=O)c2cnccn2)C(C(=O)NC2CCCC2)c2cccs2)cc1 (configuration not stated) | inconclusive: 1.84 µM [inhibitor, full curve, poor fit] | 
CC(C)=CCN1C(=O)[C@@]2(CC(C)=CC[C@@H](COc3ccccc3)O2)c2ccccc21 | inconclusive: 0.0075 µM [activator, partial curve, poor fit] | 
CC(C)(C)c1ccc(-c2nnc(SCC(=O)Nc3sc4c(c3C#N)CCCC4)o2)cc1 | inconclusive: 7.08 µM [activator, partial curve, poor fit] | 
CC(NC(=O)C1CCCN(C(=O)N(C)C)C1)c1ccccc1 (configuration not stated) | inconclusive: 5.8 µM [inhibitor, full curve, poor fit] | 
Cc1nc2c(C(=O)NC(C)c3ccccc3)cnn2c(C)c1Cc1ccccc1 (configuration not stated) | inconclusive: 11.2 µM [inhibitor, partial curve, poor fit] | 
CCOC(=O)/C(C#N)=C/c1cn(CCOc2ccc(OC)cc2)c2ccccc12 |  | inactive: 22.3%
O=C(Cc1ccc(Cl)cc1)NCC(=O)N1CCCCC1 | inconclusive: 0.891 µM [inhibitor, single point] | 
Cc1ccc(C(=O)N2CC(=O)Nc3ccc(F)cc3C2c2ccccc2)cc1 (configuration not stated) | inconclusive: 0.794 µM [activator, single point] | 
C=CCc1c(C)nc2c(C(=O)O)cnn2c1C | inconclusive: 1.46 µM [inhibitor, partial curve, poor fit] | 
COc1ccc(C2Nc3ccccc3C(=O)N2c2ccccc2)cc1CN1CCOCC1 (configuration not stated) |  | inactive: -12.5%
Cc1ccc(-c2noc(CCC(=O)NC3CCCc4ccccc43)n2)cc1 (configuration not stated) | inconclusive: 15.8 µM [inhibitor, partial curve, poor fit] | 
CC(C)CC(CC(C)C)=NNC(=O)c1ccc2c(c1)OCO2 |  | inactive: 0.317% [at 46.1 µM]
COc1ccc(OC)c(-c2csc(NC(=O)Cc3ccc(F)cc3)n2)c1 | inconclusive: 4.47 µM [inhibitor, full curve] | 

Quoted at random: 4 compounds from above, in no set order.
SMILES | Potency | activity change, negative = inhibition
Cc1ccc(-c2noc(CCC(=O)NC3CCCc4ccccc43)n2)cc1 (configuration not stated) | inconclusive: 15.8 µM [inhibitor, partial curve, poor fit] | 
CC1CCCCN1S(=O)(=O)c1ccc(N(C(=O)c2cnccn2)C(C(=O)NC2CCCC2)c2cccs2)cc1 (configuration not stated) | inconclusive: 1.84 µM [inhibitor, full curve, poor fit] | 
CCc1ccc(NC(=S)N(Cc2ccccc2)Cc2ccccn2)cc1 | inconclusive: 2.82 µM [inhibitor, full curve, poor fit] | 
COc1ccc(-n2nc(C(=O)Nc3nc4ccc(OC)cc4s3)c3ccccc3c2=O)c(OC)c1 |  | inactive: 5.33%

(cont.)

SMILES | Potency | activity change, negative = inhibition
O=C(Cn1ncc2c(=O)oc3ccccc3c21)NCc1ccc(Cl)cc1 |  | inactive: 24.2% [at 46.1 µM]
CCn1c(C)cc(/C=C2/NC(=O)N(c3ccccc3)C2=O)c1C | inconclusive: 2.59 µM [activator, single point] | 
Cc1ccc(Nc2nc3ccccc3c3nncn23)cc1C | inconclusive: 35.5 µM [activator, single point] | 
Cc1nc(-c2coc3cc(O)c(C)cc3c2=O)cs1 | inconclusive: 35.5 µM [inhibitor, single point] | 
CCOC(=O)c1c(CSc2cccs2)n(C)c2cc(Br)c(O)c(CN(C)C)c12 | inconclusive: 35.5 µM [inhibitor, partial curve, poor fit] | 
O=C(Nc1sc2c(c1C(=O)NCCCO)CCCC2)c1ccccc1 |  | inactive: -9.04% [at 46.1 µM]
CCN(CC)S(=O)(=O)c1ccc(OC)c(NC(=O)Cc2cccs2)c1 | inconclusive: 35.5 µM [inhibitor, single point] | 
COc1cccc2sc(N(Cc3cccnc3)C(=O)C3COc4ccccc4O3)nc12 (configuration not stated) |  | inactive: -12.3% [at 46.1 µM]
CC1(C)Cc2nc3nc(SCC(=O)Nc4ccccc4)nc(N)c3cc2CO1 | inconclusive: 2.82 µM [inhibitor, full curve, poor fit] | 
Cc1ccc(NC(=O)CO/N=C(\N)c2ccccc2)cc1C | inconclusive: 12.6 µM [inhibitor, single point] | 
COc1ccc(NC(=O)C2Cc3ccccc3O/C2=N\O)cc1 (configuration not stated) |  | inactive: 10.3% [at 46.1 µM]
CCc1ccc(-c2[nH]c3c(c2-c2sc(C)c(C(=O)OC)c2O)c(=O)n(C)c(=O)n3C)cc1 |  | inactive: -11.9% [at 46.1 µM]
CCOc1ccc(-c2cc(CCCC(=O)N3CCN(c4ccc(OC)cc4)CC3)no2)cc1 | inconclusive: 6.51 µM [inhibitor, partial curve] | 
ClC(Cl)(c1nnnn1-c1ccccc1)c1nnnn1-c1ccccc1 |  | inactive: -10.8%
Cc1cccc(-n2nnnc2S(C)(=O)=O)c1 | inconclusive: 12.6 µM [inhibitor, partial curve, poor fit] | 
Cc1cc(O)c(C(C)C)cc1NC(=O)Nc1ccc([N+](=O)[O-])cc1 | inconclusive: 8.91 µM [inhibitor, partial curve, poor fit] | 
Fc1ccccc1-c1nc(-c2ccccc2)no1 | inconclusive: 0.58 µM [activator, single point] | 
CC(C)Cc1nnc(NC(=O)CCC(=O)N2CCN(C3CCCC3)CC2)s1 | inconclusive: 10 µM [activator, partial curve] | 
CCn1cc(C(=O)NCc2ccccc2)c(=O)c2cc(S(=O)(=O)N3CCCCCC3)ccc21 | inconclusive: 3.55 µM [inhibitor, full curve] | 
CN1CC[C@@]2(C)c3cc(O)ccc3N(C)C12 (some centres not stated) | active: 8.2 µM | 
O=C(CCN1CCN(Cc2ccccc2)CC1)NNC(=O)Nc1cccc([N+](=O)[O-])c1 |  | inactive: 4.35%
COc1ccc(Nc2ccc(S(=O)(=O)N3CCCCC3)cc2[N+](=O)[O-])cc1Cl |  | inactive: 1.34%
CCOc1cccc2sc(NC(=O)CCS(=O)(=O)c3ccccc3)nc12 | inconclusive: 35.5 µM [inhibitor, single point] | 

SMILES | Potency | activity change, negative = inhibition
O=C(COC(=O)CNC(=O)C12CC3CC(CC(C3)C1)C2)NC1CCS(=O)(=O)C1 (configuration not stated) | inconclusive: 6.31 µM [inhibitor, single point] | 
CCC(=O)Nc1ccc(C(=O)OCC(=O)c2ccc(C)c([N+](=O)[O-])c2)cc1 | inconclusive: 29.1 µM [inhibitor, single point] | 
CNC(=S)N(CCc1cccc(C)c1)Cc1cc2cc(OC)c(OC)cc2[nH]c1=O |  | inactive: -0.17%
COC(=O)c1sccc1NC(=O)CSc1ccccc1NS(=O)(=O)c1ccccc1Cl | inconclusive: 23.1 µM [inhibitor, single point] | 
Cc1ccc(CC(=O)NCc2ccc(F)cc2)cc1 |  | inactive: -20.8%
O=c1c2cnn(-c3ccccc3)c2nc(-c2cccs2)n1-c1ccc(Cl)cc1 | inconclusive: 35.5 µM [inhibitor, partial curve, poor fit] | 
COc1ccc(-c2cc(C(=O)Nc3cccc(C(C)=O)c3)no2)cc1 | inconclusive: 1.64 µM [inhibitor, partial curve, poor fit] | 
COc1ccc(OC)c(C(c2c(C)[nH][nH]c2=O)c2c(C)[nH][nH]c2=O)c1 | inconclusive: 5.01 µM [inhibitor, full curve, poor fit] | 
Cc1ccc(N2CC(C(=O)N3CCC(C(=O)Nc4ccc(Br)cc4)CC3)CC2=O)cc1 (configuration not stated) | inconclusive: 12.6 µM [activator, single point] | 
Cc1ccc(OCCc2csc(N)n2)cc1 | inconclusive: 25.1 µM [inhibitor, single point] | 
O=C(CN1CCN(c2ccccn2)CC1)N1c2ccccc2CCc2ccccc21 |  | inactive: -14.9%
CCc1nnc(NC(=O)CSc2ccc(-c3ccc(C)cc3)nn2)s1 |  | inconclusive: 4.99% [activator]
COc1cccc(CNC(=O)CCn2cccn2)c1 |  | inactive: 10.5% [at 46.1 µM]
CC(=O)c1ccc(N2CCN(C(=S)Nc3ccccc3C(F)(F)F)CC2)cc1 | inconclusive: 35.5 µM [inhibitor, single point] | 
CC1(C)Cc2c(sc3c2c(=N)n(Cc2ccco2)c(=O)n3CC(=O)Nc2ccc(Cl)cc2)CO1 | inconclusive: 8.91 µM [inhibitor, partial curve, poor fit] | 
COc1cc(OC)cc(C(=O)Nc2cccc3nc(C)ccc23)c1 | inconclusive: 10 µM [activator, partial curve, poor fit] | 
O=[N+]([O-])c1ccc(Sc2nnnn2-c2ccccc2)nc1 | inconclusive: 11.2 µM [inhibitor, partial curve, poor fit] | 
O=C(NCC(=O)N1CCOCC1)c1ccccc1 | inconclusive: 7.08 µM [activator, partial curve, poor fit] | 
CCCOc1ccc(C(=O)Nc2ccc(C)cc2[N+](=O)[O-])cc1 | inconclusive: 0.0046 µM [activator, full curve, poor fit] | 
CN(C)S(=O)(=O)c1cccc(NC(=S)Nc2ccc(Cl)cc2Cl)c1 |  | inactive: -10.3%
Cc1ccc(NC(=S)Nc2cccc(-c3n[nH]c(=S)o3)c2)cc1 | inconclusive: 3.55 µM [activator, single point] | 
